Where two headings read alike, the source gives them in different places. Results are given in words; binding and its absence hold for the method and conditions named. In cells and extracts the contact can be indirect. Some entries that bind do so weakly or less than the wild type.
Legend:
[1] = biological target: Flag-tagged mutant TRPM8-Y1022F (Flag-M8-Y1022F) (rat) (UniProt Q8R455); assay: co-IP
[2] = biological target: Flag-tagged full-length TRPM8 (Flag-TRPM8) (rat) (UniProt Q8R455); assay: co-IP
[3] = biological target: Flag-tagged full-length TRPM8 (Flag-TRPM8) (rat) (UniProt Q8R455); assay: co-IP; remark: listed apart in the source
[4] = biological target: Flag-tagged mutant TRPM8-Y1022F (Flag-M8-Y1022F) (rat) (UniProt Q8R455); assay: cross-linking
[5] = biological target: GST-tagged C-terminus of TRPM8 (GST-M8C) (rat) (UniProt Q8R455); assay: pull-down
[6] = biological target: Flag-tagged N-terminus of TRPM8 (Flag-M8N) (rat) (UniProt Q8R455); assay: co-IP
[7] = biological target: Flag-tagged mutant TRPM8-Y1022F (Flag-M8-Y1022F) (rat) (UniProt Q8R455); assay: co-IP; remark: listed apart in the source
[8] = biological target: GFP-tagged C-terminus of TRPM8 (GFP-M8C) (rat) (UniProt Q8R455); assay: co-IP
[9] = biological target: Flag-tagged C-terminus of TRPM8 (M8-C) (rat) (UniProt Q8R455); assay: co-IP
[10] = biological target: TRPM8 (endogenous) (human (endogenous in PANC-1)) (UniProt Q7Z2W7); assay: co-IP
[11] = biological target: 14-3-3ζ (endogenous) (human (endogenous in PANC-1 and MCF7)) (UniProt P63104); assay: co-IP

The chains behind the UniProt entries cited, without tags or fusion partners. Where a name states a change or a piece, a line headed by the entry shows the natural chain unless it says otherwise. Residues count along the entry.
UniProt Q8R455, whole entry: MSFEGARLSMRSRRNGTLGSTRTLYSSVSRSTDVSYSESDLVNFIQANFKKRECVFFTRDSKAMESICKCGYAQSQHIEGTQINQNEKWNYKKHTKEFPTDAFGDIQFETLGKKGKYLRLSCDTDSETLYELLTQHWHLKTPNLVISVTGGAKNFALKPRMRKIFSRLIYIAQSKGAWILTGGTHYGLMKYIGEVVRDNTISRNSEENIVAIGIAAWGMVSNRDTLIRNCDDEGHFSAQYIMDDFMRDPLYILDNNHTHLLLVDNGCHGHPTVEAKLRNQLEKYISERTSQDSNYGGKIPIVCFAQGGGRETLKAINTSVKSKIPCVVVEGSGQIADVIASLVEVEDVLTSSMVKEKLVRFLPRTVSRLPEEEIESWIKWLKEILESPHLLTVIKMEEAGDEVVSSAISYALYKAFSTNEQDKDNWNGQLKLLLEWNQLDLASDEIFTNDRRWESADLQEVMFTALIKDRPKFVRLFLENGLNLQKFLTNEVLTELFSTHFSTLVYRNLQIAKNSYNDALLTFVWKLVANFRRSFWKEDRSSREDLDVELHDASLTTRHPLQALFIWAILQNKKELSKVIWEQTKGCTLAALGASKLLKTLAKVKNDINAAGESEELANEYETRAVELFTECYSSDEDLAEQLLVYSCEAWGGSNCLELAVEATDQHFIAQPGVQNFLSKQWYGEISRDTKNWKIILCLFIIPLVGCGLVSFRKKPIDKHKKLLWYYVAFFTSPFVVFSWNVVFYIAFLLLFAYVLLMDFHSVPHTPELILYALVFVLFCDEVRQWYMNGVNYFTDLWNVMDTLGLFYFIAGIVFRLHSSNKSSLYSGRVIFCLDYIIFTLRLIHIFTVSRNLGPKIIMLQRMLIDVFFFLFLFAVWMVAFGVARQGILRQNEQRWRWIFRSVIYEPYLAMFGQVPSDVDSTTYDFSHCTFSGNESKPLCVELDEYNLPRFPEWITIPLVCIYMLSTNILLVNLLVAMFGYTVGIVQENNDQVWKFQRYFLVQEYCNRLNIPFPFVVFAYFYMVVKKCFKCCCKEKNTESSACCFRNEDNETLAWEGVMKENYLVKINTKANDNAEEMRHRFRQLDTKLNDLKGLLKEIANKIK
UniProt Q8R455, 980-1104: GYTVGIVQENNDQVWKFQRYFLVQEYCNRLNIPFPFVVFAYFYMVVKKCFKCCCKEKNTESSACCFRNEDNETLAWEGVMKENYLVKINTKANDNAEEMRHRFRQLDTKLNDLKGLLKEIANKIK
UniProt Q7Z2W7, whole entry: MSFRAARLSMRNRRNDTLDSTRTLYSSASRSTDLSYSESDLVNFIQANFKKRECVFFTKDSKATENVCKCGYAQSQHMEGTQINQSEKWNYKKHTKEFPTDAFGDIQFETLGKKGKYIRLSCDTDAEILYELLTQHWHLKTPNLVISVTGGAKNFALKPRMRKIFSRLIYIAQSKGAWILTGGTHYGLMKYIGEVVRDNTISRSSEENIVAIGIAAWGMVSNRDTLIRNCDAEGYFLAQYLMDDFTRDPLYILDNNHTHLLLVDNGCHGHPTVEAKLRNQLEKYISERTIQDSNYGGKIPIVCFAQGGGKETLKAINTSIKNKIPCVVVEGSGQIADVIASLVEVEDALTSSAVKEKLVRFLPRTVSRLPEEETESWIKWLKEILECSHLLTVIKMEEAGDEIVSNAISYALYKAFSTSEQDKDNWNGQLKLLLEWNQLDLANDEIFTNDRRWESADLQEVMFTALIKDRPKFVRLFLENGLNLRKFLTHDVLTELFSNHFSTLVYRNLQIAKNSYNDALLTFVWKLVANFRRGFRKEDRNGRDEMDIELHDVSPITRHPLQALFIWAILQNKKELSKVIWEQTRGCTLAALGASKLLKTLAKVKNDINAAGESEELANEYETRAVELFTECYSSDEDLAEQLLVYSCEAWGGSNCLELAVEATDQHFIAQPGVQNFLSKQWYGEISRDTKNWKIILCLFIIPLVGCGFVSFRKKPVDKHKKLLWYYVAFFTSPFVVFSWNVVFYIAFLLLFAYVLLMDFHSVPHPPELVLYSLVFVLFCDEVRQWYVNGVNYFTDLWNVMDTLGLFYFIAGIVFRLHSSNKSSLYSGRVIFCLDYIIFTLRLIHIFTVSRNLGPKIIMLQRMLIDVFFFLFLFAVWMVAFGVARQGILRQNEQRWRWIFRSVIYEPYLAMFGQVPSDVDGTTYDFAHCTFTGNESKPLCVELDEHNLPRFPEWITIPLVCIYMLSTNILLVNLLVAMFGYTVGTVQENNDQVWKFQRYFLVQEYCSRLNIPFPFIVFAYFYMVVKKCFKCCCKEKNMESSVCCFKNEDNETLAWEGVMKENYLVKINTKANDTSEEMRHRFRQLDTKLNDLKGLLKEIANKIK
UniProt P63104, whole entry: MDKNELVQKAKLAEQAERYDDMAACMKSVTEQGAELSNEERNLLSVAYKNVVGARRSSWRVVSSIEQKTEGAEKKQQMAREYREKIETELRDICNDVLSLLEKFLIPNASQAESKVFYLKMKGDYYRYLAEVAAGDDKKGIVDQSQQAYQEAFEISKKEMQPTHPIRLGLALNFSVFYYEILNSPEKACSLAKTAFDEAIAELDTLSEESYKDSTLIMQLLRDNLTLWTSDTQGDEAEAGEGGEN
UniProt P51451, whole entry: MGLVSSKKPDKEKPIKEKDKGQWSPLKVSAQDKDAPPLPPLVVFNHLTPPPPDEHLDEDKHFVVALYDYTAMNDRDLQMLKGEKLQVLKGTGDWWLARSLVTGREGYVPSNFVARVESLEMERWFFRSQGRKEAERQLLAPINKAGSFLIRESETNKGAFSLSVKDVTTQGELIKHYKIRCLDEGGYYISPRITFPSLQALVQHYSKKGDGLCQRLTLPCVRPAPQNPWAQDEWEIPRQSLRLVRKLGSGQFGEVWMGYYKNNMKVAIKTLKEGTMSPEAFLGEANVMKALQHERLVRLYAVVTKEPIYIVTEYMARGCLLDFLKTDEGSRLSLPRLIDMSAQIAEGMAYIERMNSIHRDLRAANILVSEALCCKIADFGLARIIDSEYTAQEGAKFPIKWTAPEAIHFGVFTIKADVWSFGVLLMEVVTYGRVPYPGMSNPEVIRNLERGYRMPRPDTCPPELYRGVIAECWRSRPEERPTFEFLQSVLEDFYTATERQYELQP
UniProt P06239, whole entry: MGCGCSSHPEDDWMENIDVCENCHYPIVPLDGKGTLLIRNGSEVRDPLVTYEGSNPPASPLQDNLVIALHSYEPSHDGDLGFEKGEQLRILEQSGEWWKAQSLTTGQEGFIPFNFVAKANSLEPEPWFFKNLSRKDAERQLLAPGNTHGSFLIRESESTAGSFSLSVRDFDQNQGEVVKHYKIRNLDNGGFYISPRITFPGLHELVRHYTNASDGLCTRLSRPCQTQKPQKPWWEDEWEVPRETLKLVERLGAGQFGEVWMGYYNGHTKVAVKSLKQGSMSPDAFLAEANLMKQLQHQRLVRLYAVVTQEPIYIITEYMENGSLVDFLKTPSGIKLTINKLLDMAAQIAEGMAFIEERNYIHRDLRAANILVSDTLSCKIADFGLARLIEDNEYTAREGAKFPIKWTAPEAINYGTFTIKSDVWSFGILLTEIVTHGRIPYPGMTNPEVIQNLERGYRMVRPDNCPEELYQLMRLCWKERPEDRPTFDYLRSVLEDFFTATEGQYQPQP

“14-3-3ζ (endogenous) (from UniProt P63104 1-245)” was tested, and the binding [1] was “binds”, the binding [2] was “binds” and the binding [3] was “binds”.
For “Flag-tagged mutant TRPM8-Y1022F (Flag-M8-Y1022F) (from UniProt Q8R455 1-1104)”, the binding [4] was “binds”.
For “GFP fused 14-3-3ζ (GFP-14-3-3ζ) (from UniProt P63104 1-245)”, the binding [5] was “binds”.
For “GFP-tagged C-terminus of TRPM8 (GFP-M8C) (from UniProt Q8R455 980-1104) (domain or fragment)”, the binding [6] was “binds”.
In the case of “GFP-tagged wild type TRPM8 (GFP-TRPM8) (from UniProt Q8R455 1-1104)”, the binding [7] was “binds”.
In the case of “HA-tagged BLK (HA-BLK) (from UniProt P51451 1-505) (enzyme)”, the binding [5] was “binds”, the binding [3] was “binds” and the binding [8] was “binds”.
For “HA-tagged LCK (HA-LCK) (from UniProt P06239 1-509) (enzyme)”, the binding [5] was “binds”, the binding [6] was “binds” and the binding [3] was “binds”. The binding [9] was “binds” and the binding [8] was “binds”.
For “LCK (endogenous) (from UniProt P06239 1-509) (enzyme)”, the binding [10] was “binds”.
“TRPM8 (endogenous) (from UniProt Q7Z2W7 1-1104)” was tested, and the binding [11] was “binds”.
